Measured values taken from the supplement of paper PMC10849652.
The other results are listed elsewhere or left out.

Amino acid sequences for entries named in this document (tags omitted). A change or cut given only in a name is not applied to a line headed by its entry.
UniProt P38432, whole entry, looked up: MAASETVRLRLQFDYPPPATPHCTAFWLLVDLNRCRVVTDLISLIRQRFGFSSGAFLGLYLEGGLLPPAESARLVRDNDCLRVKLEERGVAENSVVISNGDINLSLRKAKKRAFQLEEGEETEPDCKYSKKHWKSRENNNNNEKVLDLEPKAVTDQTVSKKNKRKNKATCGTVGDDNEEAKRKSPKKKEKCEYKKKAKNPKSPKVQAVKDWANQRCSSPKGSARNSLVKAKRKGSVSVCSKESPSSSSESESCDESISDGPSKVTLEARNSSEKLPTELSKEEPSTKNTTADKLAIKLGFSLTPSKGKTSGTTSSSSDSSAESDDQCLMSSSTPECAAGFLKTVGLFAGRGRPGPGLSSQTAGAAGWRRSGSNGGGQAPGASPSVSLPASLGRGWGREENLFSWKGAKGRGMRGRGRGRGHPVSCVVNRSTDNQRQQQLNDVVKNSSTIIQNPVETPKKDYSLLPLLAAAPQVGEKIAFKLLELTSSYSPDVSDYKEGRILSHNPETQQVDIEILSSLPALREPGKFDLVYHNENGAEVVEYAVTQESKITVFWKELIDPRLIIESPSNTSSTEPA
UniProt P05452, whole entry, looked up: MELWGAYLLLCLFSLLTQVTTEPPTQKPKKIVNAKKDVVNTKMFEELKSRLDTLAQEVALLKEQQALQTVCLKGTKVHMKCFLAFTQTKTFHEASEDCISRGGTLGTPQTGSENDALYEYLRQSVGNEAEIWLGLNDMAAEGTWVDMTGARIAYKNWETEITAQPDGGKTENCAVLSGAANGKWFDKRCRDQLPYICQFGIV
UniProt Q15417: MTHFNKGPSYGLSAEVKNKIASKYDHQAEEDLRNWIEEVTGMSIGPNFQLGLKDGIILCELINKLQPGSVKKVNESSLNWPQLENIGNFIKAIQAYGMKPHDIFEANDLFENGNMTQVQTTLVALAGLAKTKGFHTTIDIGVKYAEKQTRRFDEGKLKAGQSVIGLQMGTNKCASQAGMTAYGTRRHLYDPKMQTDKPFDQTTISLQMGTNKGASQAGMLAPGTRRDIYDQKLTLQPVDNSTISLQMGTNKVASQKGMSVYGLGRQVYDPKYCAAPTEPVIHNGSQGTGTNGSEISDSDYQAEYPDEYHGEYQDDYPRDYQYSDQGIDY
UniProt Q96MX0: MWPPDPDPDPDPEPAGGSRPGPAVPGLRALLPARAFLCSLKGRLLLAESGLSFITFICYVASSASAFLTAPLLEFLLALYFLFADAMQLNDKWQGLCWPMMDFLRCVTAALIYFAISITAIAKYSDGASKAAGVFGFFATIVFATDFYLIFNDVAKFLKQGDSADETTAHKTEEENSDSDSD
UniProt Q8IY22: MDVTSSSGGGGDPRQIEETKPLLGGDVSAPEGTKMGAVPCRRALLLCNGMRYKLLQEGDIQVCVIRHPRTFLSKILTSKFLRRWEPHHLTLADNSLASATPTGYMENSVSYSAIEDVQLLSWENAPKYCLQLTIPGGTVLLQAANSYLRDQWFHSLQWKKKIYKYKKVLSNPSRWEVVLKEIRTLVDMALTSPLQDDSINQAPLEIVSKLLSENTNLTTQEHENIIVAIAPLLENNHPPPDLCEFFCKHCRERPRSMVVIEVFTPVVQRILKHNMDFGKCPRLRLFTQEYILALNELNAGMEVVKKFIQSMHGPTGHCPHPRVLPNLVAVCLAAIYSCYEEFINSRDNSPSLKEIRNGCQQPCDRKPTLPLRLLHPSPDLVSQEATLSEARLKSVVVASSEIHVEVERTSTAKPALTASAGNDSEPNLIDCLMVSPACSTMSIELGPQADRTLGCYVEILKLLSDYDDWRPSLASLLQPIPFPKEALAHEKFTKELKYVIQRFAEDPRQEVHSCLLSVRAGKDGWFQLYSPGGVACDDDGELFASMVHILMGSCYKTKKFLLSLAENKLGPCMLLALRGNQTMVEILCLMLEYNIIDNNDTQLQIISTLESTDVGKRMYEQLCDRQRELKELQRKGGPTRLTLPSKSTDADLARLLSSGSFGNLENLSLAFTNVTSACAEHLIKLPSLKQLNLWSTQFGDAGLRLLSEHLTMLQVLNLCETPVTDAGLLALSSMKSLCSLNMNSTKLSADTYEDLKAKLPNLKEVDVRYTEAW
UniProt Q9Y3D0: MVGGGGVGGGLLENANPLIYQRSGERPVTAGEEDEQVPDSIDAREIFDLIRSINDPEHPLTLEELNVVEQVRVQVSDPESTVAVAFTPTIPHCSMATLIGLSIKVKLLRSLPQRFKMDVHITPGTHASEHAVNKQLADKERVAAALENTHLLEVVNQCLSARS
UniProt Q14011: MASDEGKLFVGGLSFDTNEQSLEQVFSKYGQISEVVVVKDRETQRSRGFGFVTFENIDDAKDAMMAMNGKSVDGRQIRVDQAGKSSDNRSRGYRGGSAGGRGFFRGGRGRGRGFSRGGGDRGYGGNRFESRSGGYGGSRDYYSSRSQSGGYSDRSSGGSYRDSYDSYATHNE
UniProt O95628: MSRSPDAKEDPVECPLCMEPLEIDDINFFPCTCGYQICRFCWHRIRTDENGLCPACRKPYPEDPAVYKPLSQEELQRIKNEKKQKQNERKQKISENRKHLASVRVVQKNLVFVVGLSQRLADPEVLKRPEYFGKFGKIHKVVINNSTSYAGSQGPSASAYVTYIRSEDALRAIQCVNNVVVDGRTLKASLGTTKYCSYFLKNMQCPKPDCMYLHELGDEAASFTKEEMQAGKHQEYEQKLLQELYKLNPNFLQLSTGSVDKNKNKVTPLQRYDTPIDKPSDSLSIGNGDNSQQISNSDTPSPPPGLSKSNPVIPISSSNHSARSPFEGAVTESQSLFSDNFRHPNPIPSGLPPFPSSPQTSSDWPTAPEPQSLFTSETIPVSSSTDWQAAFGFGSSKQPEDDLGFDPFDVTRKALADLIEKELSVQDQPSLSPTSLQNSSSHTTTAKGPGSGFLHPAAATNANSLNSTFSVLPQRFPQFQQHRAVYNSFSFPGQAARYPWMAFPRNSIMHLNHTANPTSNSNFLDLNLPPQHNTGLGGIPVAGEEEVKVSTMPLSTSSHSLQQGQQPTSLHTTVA
UniProt O75122: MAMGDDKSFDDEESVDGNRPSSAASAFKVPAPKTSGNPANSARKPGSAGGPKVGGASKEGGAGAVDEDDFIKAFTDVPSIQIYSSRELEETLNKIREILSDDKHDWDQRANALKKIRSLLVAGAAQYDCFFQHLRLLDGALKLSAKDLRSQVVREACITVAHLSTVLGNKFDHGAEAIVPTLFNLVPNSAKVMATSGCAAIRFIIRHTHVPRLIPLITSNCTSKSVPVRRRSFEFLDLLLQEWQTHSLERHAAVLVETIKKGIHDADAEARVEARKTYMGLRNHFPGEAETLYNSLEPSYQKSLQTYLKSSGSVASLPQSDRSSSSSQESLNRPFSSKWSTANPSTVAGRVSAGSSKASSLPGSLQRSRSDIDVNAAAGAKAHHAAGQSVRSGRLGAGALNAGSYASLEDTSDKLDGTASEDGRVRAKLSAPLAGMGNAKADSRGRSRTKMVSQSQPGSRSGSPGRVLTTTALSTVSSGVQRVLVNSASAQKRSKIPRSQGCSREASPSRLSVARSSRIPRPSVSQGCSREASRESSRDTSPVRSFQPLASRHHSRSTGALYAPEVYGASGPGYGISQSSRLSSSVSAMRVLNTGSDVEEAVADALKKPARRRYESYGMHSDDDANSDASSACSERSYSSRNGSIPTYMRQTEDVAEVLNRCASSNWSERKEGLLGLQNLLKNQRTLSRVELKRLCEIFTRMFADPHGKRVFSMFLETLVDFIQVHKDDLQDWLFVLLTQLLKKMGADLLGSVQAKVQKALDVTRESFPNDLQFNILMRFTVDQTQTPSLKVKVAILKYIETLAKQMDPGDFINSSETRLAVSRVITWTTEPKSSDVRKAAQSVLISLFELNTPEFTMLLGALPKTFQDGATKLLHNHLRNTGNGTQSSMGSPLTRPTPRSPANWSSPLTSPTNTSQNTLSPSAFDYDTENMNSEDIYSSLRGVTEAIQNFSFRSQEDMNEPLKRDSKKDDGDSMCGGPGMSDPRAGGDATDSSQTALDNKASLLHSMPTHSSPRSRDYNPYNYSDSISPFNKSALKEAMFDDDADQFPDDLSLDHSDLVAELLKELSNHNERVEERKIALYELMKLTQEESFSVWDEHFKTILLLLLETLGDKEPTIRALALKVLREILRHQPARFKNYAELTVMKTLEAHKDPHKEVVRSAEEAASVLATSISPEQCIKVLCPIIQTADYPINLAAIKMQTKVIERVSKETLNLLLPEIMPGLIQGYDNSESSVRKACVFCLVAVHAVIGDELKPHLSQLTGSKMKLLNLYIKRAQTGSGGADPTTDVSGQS
UniProt Q8N2M8: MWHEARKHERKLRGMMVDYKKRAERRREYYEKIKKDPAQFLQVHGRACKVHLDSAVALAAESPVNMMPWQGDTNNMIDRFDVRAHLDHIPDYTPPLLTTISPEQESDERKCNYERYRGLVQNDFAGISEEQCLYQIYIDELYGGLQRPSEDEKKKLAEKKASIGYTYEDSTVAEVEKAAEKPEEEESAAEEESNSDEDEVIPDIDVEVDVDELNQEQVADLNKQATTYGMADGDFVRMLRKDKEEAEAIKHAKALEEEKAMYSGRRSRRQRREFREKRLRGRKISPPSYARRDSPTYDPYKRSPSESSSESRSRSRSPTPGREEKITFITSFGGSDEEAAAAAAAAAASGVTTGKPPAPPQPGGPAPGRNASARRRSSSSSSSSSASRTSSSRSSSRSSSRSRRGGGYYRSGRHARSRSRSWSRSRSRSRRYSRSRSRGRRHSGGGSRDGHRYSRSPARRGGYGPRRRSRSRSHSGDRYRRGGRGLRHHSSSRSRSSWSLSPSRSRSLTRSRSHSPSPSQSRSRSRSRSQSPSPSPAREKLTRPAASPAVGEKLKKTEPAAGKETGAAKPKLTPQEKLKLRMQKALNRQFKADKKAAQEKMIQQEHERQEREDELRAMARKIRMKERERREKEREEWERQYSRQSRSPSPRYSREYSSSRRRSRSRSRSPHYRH
UniProt Q96JB2: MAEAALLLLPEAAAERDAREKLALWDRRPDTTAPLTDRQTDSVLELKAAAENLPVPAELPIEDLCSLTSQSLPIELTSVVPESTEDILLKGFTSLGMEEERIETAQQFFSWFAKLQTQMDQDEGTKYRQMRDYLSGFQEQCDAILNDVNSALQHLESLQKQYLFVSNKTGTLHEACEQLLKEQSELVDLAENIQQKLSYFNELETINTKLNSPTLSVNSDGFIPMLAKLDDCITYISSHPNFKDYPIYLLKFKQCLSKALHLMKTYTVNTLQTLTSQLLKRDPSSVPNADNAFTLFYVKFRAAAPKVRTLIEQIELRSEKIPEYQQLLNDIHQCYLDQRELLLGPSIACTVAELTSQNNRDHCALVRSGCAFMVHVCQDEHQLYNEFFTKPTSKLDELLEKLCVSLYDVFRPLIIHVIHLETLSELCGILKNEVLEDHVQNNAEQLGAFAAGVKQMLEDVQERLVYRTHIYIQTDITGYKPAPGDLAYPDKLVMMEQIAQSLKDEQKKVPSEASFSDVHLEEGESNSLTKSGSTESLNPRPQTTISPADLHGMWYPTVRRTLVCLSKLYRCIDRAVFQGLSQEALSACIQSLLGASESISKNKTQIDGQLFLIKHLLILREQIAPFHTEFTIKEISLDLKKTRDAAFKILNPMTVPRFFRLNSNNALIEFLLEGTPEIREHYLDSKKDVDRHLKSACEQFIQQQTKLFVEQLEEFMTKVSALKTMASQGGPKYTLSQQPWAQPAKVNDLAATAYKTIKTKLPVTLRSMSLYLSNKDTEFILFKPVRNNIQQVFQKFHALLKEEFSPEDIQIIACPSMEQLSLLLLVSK
UniProt Q14677: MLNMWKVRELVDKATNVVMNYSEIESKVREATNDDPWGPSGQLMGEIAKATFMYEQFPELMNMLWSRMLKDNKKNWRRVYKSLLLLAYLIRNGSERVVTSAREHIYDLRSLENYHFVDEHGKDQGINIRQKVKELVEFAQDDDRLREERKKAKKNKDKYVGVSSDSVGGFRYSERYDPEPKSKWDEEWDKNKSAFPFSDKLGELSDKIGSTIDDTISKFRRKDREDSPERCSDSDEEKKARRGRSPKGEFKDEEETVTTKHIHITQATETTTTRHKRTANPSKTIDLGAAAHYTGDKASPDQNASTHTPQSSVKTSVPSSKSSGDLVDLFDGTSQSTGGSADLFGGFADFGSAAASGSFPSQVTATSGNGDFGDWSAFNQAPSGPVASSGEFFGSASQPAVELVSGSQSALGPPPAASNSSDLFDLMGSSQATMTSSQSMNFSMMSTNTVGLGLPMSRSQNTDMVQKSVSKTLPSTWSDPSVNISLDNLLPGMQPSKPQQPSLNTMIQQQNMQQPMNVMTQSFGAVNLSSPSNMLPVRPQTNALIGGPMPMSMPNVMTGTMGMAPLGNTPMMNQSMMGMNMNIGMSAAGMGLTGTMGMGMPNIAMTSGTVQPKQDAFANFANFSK
UniProt Q8N9A8: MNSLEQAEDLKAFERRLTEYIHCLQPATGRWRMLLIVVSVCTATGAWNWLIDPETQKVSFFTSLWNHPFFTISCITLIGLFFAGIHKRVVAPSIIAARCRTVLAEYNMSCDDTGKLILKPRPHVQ
UniProt P33552, whole entry, looked up: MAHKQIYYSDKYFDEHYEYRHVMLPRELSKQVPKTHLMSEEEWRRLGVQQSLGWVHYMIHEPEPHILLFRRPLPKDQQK

Experiments:
Test in all cases: log2 fold change, soluble protein after heating vs DMSO (PISA); higher = thermal stabilisation; K562 cells, 10 uM, 30 min; active = over 0.2 and 3.5 SD of the protein, either way, in both replicates (recomputed)
[1] = compound: CC1=C(C=C(C=C1)NC(=O)C2=CC(=CC=C2)C(C)(C)C#N)NC3=CC4=C(C=C3)N=CN(C4=O)C
In short: (§1)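 Values are thermal stability changes relative to control samples and are taken from duplicates. They are stated as log2 fold changes. Before quantification by TMTpro 16plex LC-MS/MS with equalised channel sums, K562 cells at 2×10^6 cells/mL were treated with 10 μM compound for 30 min, heated in aliquots for 3 min across 48°C-58°C, pooled, extracted in PBS with 0.5% NP-40 at 4°C, and centrifuged at 21,000xg for 90 min to give the soluble supernatant.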

[2] = compound: CC1=C(C=C(C=C1)NC(=O)C2=CC(=CC=C2)N(C)C)NC(=O)C3=CC=C(C=C3)O
In short: as §1

[3] = compound: CC1=CC=C(C=C1)SC2=C3C=C(SC3=CN=C2)C(=O)N
In short: as §1

Nexturastat A = compound: CCCCN(Cc1ccc(C(=O)NO)cc1)C(=O)Nc1ccccc1 [Nexturastat A]
In short: as §1

[4] = compound: CCCS(=O)(=O)Nc1ccc(F)c(C(=O)c2c[nH]c3ncc(Cl)cc23)c1F
In short: as §1

givinostat = compound: CCN(CC)Cc1ccc2cc(COC(=O)Nc3ccc(C(=O)NO)cc3)ccc2c1 [givinostat]
In short: as §1

barasertib = compound: CCN(CCCOc1ccc2c(Nc3cc(CC(=O)Nc4cccc(F)c4)[nH]n3)ncnc2c1)CCOP(=O)(O)O [barasertib]
In short: as §1

[5] = compound: CC[C@@H]1C(=O)N(C)c2cnc(Nc3ccc(C(=O)NC4CCN(C)CC4)cc3OC)nc2N1C1CCCC1
In short: as §1

volasertib = compound: CC[C@@H]1C(=O)N(C)c2cnc(Nc3ccc(C(=O)N[C@H]4CC[C@H](N5CCN(CC6CC6)CC5)CC4)cc3OC)nc2N1C(C)C [volasertib]
In short: as §1

[6] = compound: CC[C@H](C)N1C=C(C2=C(C=C(C=C21)C3=CN=C(C=C3)N4CCNCC4)C(=O)NCC5=C(C=C(NC5=O)C)C)C
In short: as §1

epoxomicin = compound: CC[C@H](C)[C@@H](C(=O)N[C@@H]([C@@H](C)O)C(=O)N[C@@H](CC(C)C)C(=O)[C@]1(CO1)C)NC(=O)[C@H]([C@@H](C)CC)N(C)C(=O)C [epoxomicin]
In short: as §1

[7] = compound: CCn1c(C(=O)N(C2CC2)C2CC2)cc2c3c(ncn3C)c(Nc3cc(C)n(C)n3)nc21
In short: as §1

rosiglitazone = compound: CN(CCOC1=CC=C(C=C1)C[C@H]2C(=O)NC(=O)S2)C3=CC=CC=N3 (racemic) [rosiglitazone]
In short: as §1

[8] = compound: CN1C2=C(C3=C1C(=O)N(N=C3)CC4=CC(=CC=C4)N)SC(=C2)S(=O)C
In short: as §1

vemurafenib = compound: CCCS(=O)(=O)Nc1ccc(F)c(C(=O)c2c[nH]c3ncc(-c4ccc(Cl)cc4)cc23)c1F [vemurafenib]
In short: as §1

[9] = compound: CCCc1cc(C)[nH]c(=O)c1CNC(=O)c1cc(-c2ccnc(N3CCN(C)CC3)c2)cc2c1cnn2C(C)C
In short: as §1

[10] = compound: CN(C)CC(=O)Nc1ccc2[nH]c(=O)c3ccccc3c2c1
In short: as §1

[11] = compound: CCn1cc(-c2ccnc3[nH]c(-c4cccc(CN(C)C)c4)cc23)c(-c2ccc(NC(=O)N(C)C)cc2)n1
In short: as §1

[12] = compound: CN1CCC(CNc2ccc3ncc(-c4cccc(OC(F)(F)F)c4)n3n2)CC1
In short: as §1

[13] = compound: CC1=NC(=CC=C1)C2=C(N=C(N2)C(C)(C)C)C3=CC4=NC=CN=C4C=C3
In short: as §1

Row | Target | log2 fold change [1] | log2 fold change [2] | log2 fold change [3] | log2 fold change (Nexturastat A) | log2 fold change [4] | log2 fold change (givinostat) | log2 fold change (barasertib) | log2 fold change [5] | log2 fold change (volasertib) | log2 fold change [6] | log2 fold change (epoxomicin) | log2 fold change [7] | log2 fold change (rosiglitazone) | log2 fold change [8] | log2 fold change (vemurafenib) | log2 fold change [9] | log2 fold change [10] | log2 fold change [11] | log2 fold change [12] | log2 fold change [13]
1 | COIL (UniProt P38432) | inactive: 0.132 | inactive: -0.024 | inactive: -0.028 | inactive: 0 | inactive: -0.124 | inactive: -0.057 | inactive: 0 | inactive: 0.01 | inactive: 0.107 | inactive: 0.126 | inactive: -0.033 | inactive: 0.055 | inactive: 0.165 | inactive: 0.043 |  |  |  |  |  | 
2 | CLEC3B (UniProt P05452) | inactive: -0.275 | inactive: 0.242 | inactive: 0.255 | inactive: 0.071 | inactive: -0.027 | inactive: -0.139 | inactive: -0.115 | inactive: -0.099 | inactive: -0.126 | inactive: -0.154 | inactive: -0.62 | inactive: -0.272 | inactive: 0.098 | inactive: 0.323 | inactive: 0.202 | inactive: -0.396 | inactive: -0.166 |  |  | 
3 | COL12A1 (UniProt Q99715) | inactive: -0.511 | inactive: 0.092 | inactive: 0.122 | inactive: 0.266 | inactive: 0.062 |  |  |  | inactive: -0.312 |  | inactive: -0.004 |  |  |  |  |  |  |  |  | 
4 | CNN3 (UniProt Q15417) | inactive: 0.014 |  | inactive: 0.064 | inactive: 0.015 | inactive: 0.07 | inactive: 0.073 | inactive: 0.047 | inactive: -0.08 | active: -0.368 | inactive: 0.072 | inactive: 0.066 |  |  | inactive: -0.018 | inactive: 0.034 | inactive: -0.018 | inactive: 0.106 | inactive: 0.008 | inactive: -0.055 | 
5 | COG2 (UniProt Q14746) | inactive: -0.064 | inactive: 0 |  | inactive: 0.432 |  | inactive: 0.048 |  | inactive: -0.173 |  | inactive: -0.357 | inactive: 0.008 |  |  | inactive: 0.302 |  | inactive: -0.59 |  |  |  | inactive: 0.096
6 | CMTM3 (UniProt Q96MX0) | inactive: 0.052 |  | inactive: 0.117 | inactive: -0.119 | inactive: 0.001 | inactive: -0.016 | inactive: 0.098 | inactive: 0.066 | inactive: -0.088 | inactive: -0.061 | inactive: 0.075 |  | active: -0.324 | inactive: 0.048 | inactive: 0 | inactive: -0.024 | inactive: 0.02 | inactive: 0.057 | inactive: -0.122 | inactive: -0.027
7 | COG1 (UniProt Q8WTW3) | inactive: 0.02 | inactive: -0.065 | inactive: -0.119 |  | inactive: -0.058 |  |  |  | inactive: -0.025 |  |  |  |  | inactive: 0.159 |  |  |  | inactive: 0.037 | inactive: -0.044 | inactive: -0.298
8 | CNTRL (UniProt Q7Z7A1) | inactive: -0.062 | inactive: 0.043 |  |  |  |  |  | inactive: -0.035 |  | inactive: -0.012 |  |  |  | inactive: 0.341 | inactive: 0.115 |  | inactive: -0.145 |  |  | 
9 | CMIP (UniProt Q8IY22) | inactive: -0.075 | inactive: -0.012 |  | inactive: 0.418 |  |  | inactive: -0.064 | inactive: 0.03 |  |  | inactive: 0.008 |  | inactive: 0.059 |  |  | inactive: 0.153 |  | inactive: 0.039 | inactive: -0.063 | 
10 | CIAO2B (UniProt Q9Y3D0) | inactive: -0.099 |  | inactive: -0.044 |  | inactive: -0.054 | inactive: 0.001 | inactive: 0.102 | inactive: 0.041 | inactive: -0.398 | inactive: 0.053 |  | inactive: -0.026 | inactive: 0.013 | inactive: -0.122 |  | inactive: 0.307 |  |  |  | inactive: -0.149
11 | CIRBP (UniProt Q14011) |  |  | inactive: -0.115 | inactive: 0.01 | inactive: 0.048 |  | inactive: -0.245 | inactive: 0.239 | inactive: 0.084 | inactive: -0.021 | inactive: -0.501 |  | inactive: -0.132 | inactive: 0.093 | inactive: 0.053 | inactive: -0.031 | inactive: -0.34 | inactive: 0.106 | inactive: 0.206 | 
12 | CNOT4 isoform 9 (UniProt O95628) |  | inactive: -0.034 | inactive: 0.003 |  | inactive: 0.006 | inactive: 0.053 | inactive: 0.015 | inactive: 0.198 | inactive: -0.006 | inactive: -0.046 |  |  |  | inactive: -0.105 | inactive: -0.059 | inactive: -0.171 | inactive: 0.046 | inactive: -0.095 | inactive: 0.072 | inactive: 0.017
13 | CLASP2 (UniProt O75122) |  | inactive: -0.286 | inactive: -0.103 |  | inactive: -0.068 | inactive: 0.031 | inactive: 0.031 | inactive: -0.104 | inactive: -0.123 | inactive: 0.083 |  |  |  |  |  | inactive: -0.017 |  |  |  | inactive: 0.065
14 | CLASRP (UniProt Q8N2M8) | inactive: -0.115 |  |  | inactive: 0.019 |  | inactive: 0.013 | inactive: 0.004 | inactive: -0.33 |  | inactive: 0.07 | inactive: 0.016 | inactive: -0.114 | inactive: 0.035 |  |  |  |  | inactive: -0.109 | inactive: 0.058 | inactive: 0.051
15 | COG3 (UniProt Q96JB2) |  | inactive: -0.099 |  | inactive: 0.341 |  | inactive: 0.316 | inactive: -0.082 | inactive: 0.047 |  |  | inactive: -0.074 | inactive: -0.407 | inactive: -0.083 | inactive: 0.172 | inactive: 0.071 | inactive: 0.231 | inactive: -0.014 |  |  | inactive: -0.263
16 | CLINT1 (UniProt Q14677) |  |  |  | inactive: 0.259 |  |  | inactive: 0.017 | inactive: -0.022 |  | inactive: 0.021 | inactive: -0.035 |  |  | inactive: -0.218 | inactive: 0.051 | inactive: -0.017 | inactive: -0.075 |  |  | inactive: -0.007
17 | CNEP1R1 isoform 2 (UniProt Q8N9A8) |  |  |  |  |  | inactive: -0.064 |  |  |  |  |  | inactive: 0.037 |  |  | inactive: -0.045 |  | inactive: 0.153 |  |  | 
18 | COG8 (UniProt Q96MW5) |  |  |  | inactive: 0.499 |  |  |  | inactive: 0.066 |  |  | inactive: 0.039 |  |  |  |  | inactive: 0.297 |  |  |  | inactive: -0.166
19 | CKS2 (UniProt P33552) |  |  | inactive: -0.031 |  | inactive: 0.039 |  | inactive: 0.045 | inactive: 0.01 | inactive: -0.044 | inactive: 0.029 |  |  |  | inactive: 0.023 |  | inactive: -0.077 |  | inactive: -0.23 | active: 0.594 | 

Two entries drawn at random from those above:
Row | Target | log2 fold change [1] | log2 fold change [2] | log2 fold change [3] | log2 fold change (Nexturastat A) | log2 fold change [4] | log2 fold change (givinostat) | log2 fold change (barasertib) | log2 fold change [5] | log2 fold change (volasertib) | log2 fold change [6] | log2 fold change (epoxomicin) | log2 fold change [7] | log2 fold change (rosiglitazone) | log2 fold change [8] | log2 fold change (vemurafenib) | log2 fold change [9] | log2 fold change [10] | log2 fold change [11] | log2 fold change [12] | log2 fold change [13]
17 | CNEP1R1 isoform 2 (UniProt Q8N9A8) |  |  |  |  |  | inactive: -0.064 |  |  |  |  |  | inactive: 0.037 |  |  | inactive: -0.045 |  | inactive: 0.153 |  |  | 
2 | CLEC3B (UniProt P05452) | inactive: -0.275 | inactive: 0.242 | inactive: 0.255 | inactive: 0.071 | inactive: -0.027 | inactive: -0.139 | inactive: -0.115 | inactive: -0.099 | inactive: -0.126 | inactive: -0.154 | inactive: -0.62 | inactive: -0.272 | inactive: 0.098 | inactive: 0.323 | inactive: 0.202 | inactive: -0.396 | inactive: -0.166 |  |  | 
